The nature of series [1]: Boc solid-phase peptide synthesis; Merrifield resin; DIC; HOBT in D-Trp, Tyr, Ser and Trp couplings. Particulars: whole synthesis.
Series [2] is described as follows: general procedure: Boc solid-phase peptide synthesis; Merrifield resin; DIC; HOBT in D-Trp, Tyr, Ser and Trp couplings. Particulars: whole synthesis.

On to “pGlu-His-Trp-Ser-Tyr-D-Trp-Leu-Arg-Pro-Gly-NH2”, for which, in series [1], the isolated mass came to 8.4 gm. In series [2], the “final purity (method not given)” value was more than 99% and the isolated yield is 59%.

Values taken from patent US7122628 (dated 2006).
